According to PubChem BioAssay AID588590 (National Center for Advancing Translational Sciences (NCATS), 2011):
Several values for one entry are separate records, joined by “and”; a condition that tells them apart may be missing. Equal values may be shown once. Screen size: about 390,000 compounds; about 4,000 (1%) were called active. This list was built around the results that the source calls inconclusive (neither active nor inactive); the mix of calls is not that of the screen. Calls follow the shape of the dose curve; as a rule, active = well fitted inhibition curve with a large enough effect; inconclusive = small, poorly fitted or top-dose-only effect, or another doubt; inactive = no such curve, though single readings can be large or run the other way. A potency beside an inconclusive call is a rough fit, not a confirmed value.

Sequences of proteins named here, by UniProt entry; tags and fusion partners are left off. A change or cut given only in a name is not applied to a line headed by its entry.
UniProt Q9UNA4: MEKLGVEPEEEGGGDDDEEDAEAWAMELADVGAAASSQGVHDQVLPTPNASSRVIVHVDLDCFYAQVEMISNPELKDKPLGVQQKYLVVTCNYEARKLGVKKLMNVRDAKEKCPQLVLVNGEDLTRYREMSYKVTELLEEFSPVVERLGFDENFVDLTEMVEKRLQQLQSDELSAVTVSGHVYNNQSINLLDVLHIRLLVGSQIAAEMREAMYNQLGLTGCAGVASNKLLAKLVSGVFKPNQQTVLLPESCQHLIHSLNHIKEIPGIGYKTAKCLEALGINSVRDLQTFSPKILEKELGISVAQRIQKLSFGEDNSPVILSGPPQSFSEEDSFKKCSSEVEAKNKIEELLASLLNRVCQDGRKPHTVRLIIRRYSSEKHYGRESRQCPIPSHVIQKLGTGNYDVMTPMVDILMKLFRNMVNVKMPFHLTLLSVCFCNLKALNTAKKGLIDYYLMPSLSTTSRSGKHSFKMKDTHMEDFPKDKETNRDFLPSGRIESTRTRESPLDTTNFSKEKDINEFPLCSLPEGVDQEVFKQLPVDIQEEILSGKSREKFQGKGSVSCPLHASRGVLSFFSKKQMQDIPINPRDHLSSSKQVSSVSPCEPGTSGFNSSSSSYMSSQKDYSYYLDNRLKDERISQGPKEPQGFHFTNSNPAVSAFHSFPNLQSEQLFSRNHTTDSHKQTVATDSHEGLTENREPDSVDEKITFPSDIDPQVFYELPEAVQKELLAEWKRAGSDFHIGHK

Each molecule was assayed against DNA polymerase iota (Homo sapiens) (UniProt Q9UNA4) (assay: qHTS for Inhibitors of Polymerase Iota). Conditions: Pol iota fluorescent replication assay, 10 min; series mostly up to 115 µM; activity, negative = inhibition: at the top concentration.
Outline: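 Fluorescent replication assay read twice, at 0 min and 10 min after adding 50 nM (final) substrate. Enzyme (10 nM) and compounds were first incubated 15 min at room temperature; enzyme-free buffer wells were negative controls.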
Potency is read from the fitted curve at half-maximal effect.

SMILES | Potency | activity, negative = inhibition
O=[N+]([O-])c1cc(C(F)(F)F)cc([N+](=O)[O-])c1NN=C1CCCCC1 | inconclusive: 50.1 µM [inhibitor, partial curve, poor fit] | 
Oc1cc(O)c(/C=C/c2ccnc3ccccc23)c(O)c1 | inconclusive: 56.2 µM [inhibitor, partial curve, poor fit] | 
Cc1ccc(C(=O)NCc2ccco2)o1 | inconclusive: 14.1 µM [inhibitor, full curve, poor fit] | 
CC1=C(C(=O)Nc2ccc(C)cc2C)C(c2ccccc2)n2ncc(C(=O)Nc3ccccc3)c2N1 (centres undefined) |  | inactive: 38%
CC(=O)N1CC[n+]2c(-c3ccc(Cl)cc3Cl)csc21 | inconclusive: 25.1 µM [inhibitor, partial curve, poor fit] | 
CCS(=O)(=O)c1nc(S(=O)(=O)c2ccc(Cl)cc2)c(NCc2ccccc2Cl)s1 | inconclusive: 100 µM [inhibitor, single point] | 
CCOC(=O)c1csc(NC(=O)CN2CCOCC2)n1 | inconclusive: 8.91 µM [inhibitor, full curve, poor fit] | 
CCOc1ccc(CNC(=O)c2ccc(Sc3ccc(Cl)cc3)c(NC(C)=O)c2)cc1OC | inconclusive: 20 µM [inhibitor, partial curve, poor fit] | 
CN(Cc1ccccc1)C(=O)c1[nH]cnc1C(=O)Nc1nccs1 | inconclusive: 89.1 µM [inhibitor, single point] | 
Cc1onc(-c2ccccc2Cl)c1C(=O)Nc1sc2c(c1C#N)CCC2 | inconclusive: 15.8 µM [inhibitor, full curve, poor fit] | 
CC(C)[n+]1ccn(C2=C([O-])c3ccccc3C(=O)/C2=N\S(=O)(=O)c2ccccc2)c1 | inconclusive: 20 µM [inhibitor, partial curve] | 
CCC(=O)Oc1ccc2c(C)cc(=O)oc2c1C | inconclusive: 2.82 µM [inhibitor, full curve, poor fit] | 
CCOCc1cc(CN2CCN(c3cccc(Cl)c3)CC2)c(O)c2ncccc12 |  | inactive: 2.62%
C=Cc1c(C)c2cc3[nH]c(cc4nc(cc5nc(cc1[nH]2)C(C)=C5CCC(=O)O)C(CCC(=O)O)=C4C)c(C)c3C=C | active: 5.01 µM and active: 10 µM | 
COc1ccc(C(=O)/C=C/c2ccsc2)cc1CSCC(=O)O | active: 12.6 µM | 
CCN(Cc1ccccc1)Cc1c(O)ccc2c(=O)c(-c3ccccc3Cl)c(C(F)(F)F)oc12 | inconclusive: 89.1 µM [inhibitor, single point] | 
O=C(NNC(=O)c1cc(O)c(O)c(O)c1)NC1CCCCC1 | inconclusive: 31.6 µM [inhibitor, partial curve, poor fit] | 
CCC(C(=O)Nc1cc(-c2nc3cccnc3s2)ccc1C)c1ccccc1 (centres undefined) |  | inactive: 7.29%
Cc1ccc(S(=O)(=O)N2[C@@H](c3ccc4c(c3)OCO4)C(C(=O)O)=C[C@H]2CC2CCCC2)cc1 | inconclusive: 20 µM [inhibitor, partial curve, poor fit] | 
Cc1ccc(-c2cc(C(=O)NCCN3CCOCC3)c3ccccc3n2)o1 | inconclusive: 3.55 µM [inhibitor, full curve, poor fit] | 
O=C(O)C1C2C=CC3(O2)C1C(=O)N1c2ccccc2C2OCCC2C13 (centres undefined) | inconclusive: 70.8 µM [inhibitor, partial curve, poor fit] | 
COc1cccc(CNC(=O)C2CCN(c3nnc(-n4c(C)ccc4C)s3)CC2)c1 | inconclusive: 79.4 µM [inhibitor, single point] | 

Pulled by structure from the entries so far:
SMILES | Potency | activity, negative = inhibition
Cc1ccc(S(=O)(=O)N2[C@@H](c3ccc4c(c3)OCO4)C(C(=O)O)=C[C@H]2CC2CCCC2)cc1 | inconclusive: 20 µM [inhibitor, partial curve, poor fit] | 
CCS(=O)(=O)c1nc(S(=O)(=O)c2ccc(Cl)cc2)c(NCc2ccccc2Cl)s1 | inconclusive: 100 µM [inhibitor, single point] | 
CCOCc1cc(CN2CCN(c3cccc(Cl)c3)CC2)c(O)c2ncccc12 |  | inactive: 2.62%
Oc1cc(O)c(/C=C/c2ccnc3ccccc23)c(O)c1 | inconclusive: 56.2 µM [inhibitor, partial curve, poor fit] | 

The list continues.

SMILES | Potency | activity, negative = inhibition
Cc1ccc(S(=O)(=O)Cc2ccc(C(=O)NC3CCCCCC3)o2)cc1 | inconclusive: 89.1 µM [inhibitor, partial curve, poor fit] | 
Nc1cc(=O)[nH]c(SCC(=O)c2ccc(O)cc2O)n1 | inconclusive: 89.1 µM [inhibitor, single point] | 
O=C(OCn1nnc2ccccc2c1=O)c1cn(-c2ccccc2)nc1-c1cccnc1 | inconclusive: 20 µM [inhibitor, full curve, poor fit] | 
Cc1cc(C)nc(SCC(=O)Nc2nc(-c3ccccc3)c(-c3ccccc3)o2)n1 | inconclusive: 11.2 µM [inhibitor, partial curve, poor fit] | 
O=C(/C=C/c1ccc2ccccc2n1)N1CCN(c2ccccc2)CC1 | inconclusive: 50.1 µM [inhibitor, partial curve, poor fit] | 
COc1ccc(/C=C2/SC(=S)N(n3c(C)ccc3C)C2=O)cc1 | inconclusive: 35.5 µM [inhibitor, single point] | 
CCCn1ccc2c(OCC(=O)NCc3ccccc3Cl)cccc2c1=O |  | inactive: 26.3%
C=CCSc1nnc(NC(=O)CCNC(=O)c2ccco2)s1 | inconclusive: 2 µM [inhibitor, partial curve, poor fit] | 
O=C(CSc1nc2ccccc2s1)CSc1nc2ccccc2s1 | inconclusive: 17.8 µM [inhibitor, partial curve, poor fit] | 
c1coc(-c2nc3nc4ccccc4n3nc2-c2ccco2)c1 | inconclusive: 17.8 µM [inhibitor, partial curve, poor fit] | 
O=C(COC(=O)/C=C/c1ccco1)NCc1ccc(Cl)cc1 | inconclusive: 56.2 µM [inhibitor, partial curve, poor fit] | 
COc1cc([N+](=O)[O-])ccc1NC(=S)N1CCOCC1 |  | inactive: 49.6%
COc1ccc(-c2nnc(C)c3nocc23)cc1 | inconclusive: 2.51 µM [inhibitor, partial curve, poor fit] | 
CC(C)(C)n1ncc2c(=O)n(Cc3ccccc3SC(F)(F)F)cnc21 |  | inactive: 8.96%
O=C(O)CC1S/C(=N/N=C/c2ccc(-c3ccc(Cl)c([N+](=O)[O-])c3)o2)NC1=O (centres undefined) | inconclusive: 39.8 µM [inhibitor, partial curve] | 
CC(=O)C1=C(O)C=C(c2ccco2)CC1c1ccco1 (centres undefined) | inconclusive: 44.7 µM [inhibitor, partial curve, poor fit] | 
CCS(=O)(=O)N1CCC(C(=O)N2CCN(c3ccccc3)CC2)CC1 | inconclusive: 112 µM [inhibitor, single point] | 
N#Cc1c(SCC(=O)Nc2nccs2)nc2c(c1-c1ccco1)CCCC2 | inconclusive: 11.2 µM [inhibitor, full curve, poor fit] | 
CC(=O)Nc1ccc(S(=O)(=O)N2CCN(C(C)CCc3ccccc3)CC2)cc1 (centres undefined) | inconclusive: 14.1 µM [inhibitor, partial curve, poor fit] | 
COc1ccc2[nH]c(=O)c(C(c3nnnn3CC3CCCO3)N3CCc4ccccc4C3)cc2c1 (centres undefined) | inconclusive: 15.8 µM [inhibitor, single point] | 
CN(c1ccccc1)S(=O)(=O)c1ccc(NC(=O)c2nc(S(C)(=O)=O)ncc2Cl)cc1 | inconclusive: 31.6 µM [inhibitor, partial curve, poor fit] | 
CCn1c(SCC(=O)c2ccc(O)c(O)c2)nnc1-c1ccccc1OC | active: 10 µM | 

SMILES | Potency | activity, negative = inhibition
O=c1cc(-c2ccc(O)cc2)oc2cc(O)c([C@@H]3O[C@H](CO)[C@@H](O)[C@H](O)[C@H]3O)c(O)c12 |  | inactive: 2.44%
c1ccc(Nc2nc(Nc3ccccc3)nc(-n3cccn3)n2)cc1 | inconclusive: 79.4 µM [inhibitor, single point] | 
CCOC(=O)CC(=O)NC(C)(C)CCCCC(C)(C)NC(=O)CC(=O)OCC | inconclusive: 3.55 µM [inhibitor, full curve, poor fit] | 
O=C1Nc2ccccc2Oc2cc(Oc3ccccc3)ccc21 | active: 79.4 µM | 
CC(C)NC(=S)N/N=C1\CCCCc2ccccc21 | inconclusive: 31.6 µM [inhibitor, partial curve, poor fit] | 
CCCC(=O)Nc1cccc2c1CCCC2 | inconclusive: 89.1 µM [inhibitor, single point] | 
COc1cc2nc(NCCCN3CCN(C)CC3)n3nc(-c4ccccc4)nc3c2cc1OC | inconclusive: 63.1 µM [inhibitor, partial curve, poor fit] | 
COc1ccc(-c2cn(-c3ccc(C)cc3)c(=O)n2CC(=O)Nc2ccc(OC)cc2OC)cc1 | inconclusive: 39.8 µM [inhibitor, single point] | 
CCCCCCCC(=O)NNC(=O)Cc1ccccc1 |  | inactive: -21.2%
O=C(Cc1ccc(Cl)cc1)N/N=C/c1c(Cl)cccc1Cl | inconclusive: 89.1 µM [inhibitor, single point] | 
CCC(CNc1cc(OC)cc2cccnc12)NC1CCCCC1 (centres undefined) | inconclusive: 4.47 µM [inhibitor, single point] | 
CC(=O)Nc1ccc2nc(-c3ccc(Br)o3)[nH]c2c1 | inconclusive: 14.1 µM [inhibitor, partial curve, poor fit] | 
CCOc1ccc(/C=C/C(=O)c2ccccc2)cc1OC |  | inactive: -12.7%
Cc1nc(C)c(C(=O)C2=C(O)C(=O)N(CCN3CCOCC3)C2c2cccs2)s1 (centres undefined) | inconclusive: 17.8 µM [inhibitor, single point] | 
c1cc2c3c(cccc3c1)C(N1CCOCC1)=N2 |  | inactive: 65.6%
CN(C)c1ccc(/C=C2\C(=O)/C(=C\c3ccc(N(C)C)cc3)c3ccccc32)cc1 |  | inactive: 6.05%
O=c1cc(CN2CCN(c3ccccc3O)CC2)nc2sccn12 | active: 44.7 µM | 
CCOC(=O)N1CCC(Nc2c(-c3ccc(C)cc3)c(=O)c2=O)CC1 | inconclusive: 17.8 µM [inhibitor, single point] | 
CC(C)c1cccc(C(C)C)c1OC(=O)NC(=O)c1c(F)cccc1F |  | inactive: 5.18%
Cc1c(CCNC=O)cc(C)c2c3c(oc12)CCCC3 |  | inactive: 19.5%
